The list shows a part of the results.
What was measured:
Assay in all cases: glycan array binding signal (z-score within array); higher = stronger binding
Conditions in all cases: glycan notation: IUPAC condensed, linker removed
[1] = molecular target: Neu5Ac(a2-3)Gal(b1-3)[Fuc(a1-4)]GlcNAc
Summary of the method: (§1)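 Negative Z-scores can be read as non-binding. The Z-score is calculated within each array and then averaged across arrays of one protein sequence at different concentrations or buffers and across linkers. Arrays, 3228 in all, were curated from the Consortium for Functional Glycomics database and kept only where the protein sequence was available.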

[2] = molecular target: Neu5Ac(a2-3)Gal(b1-3)[Fuc(a1-4)]GlcNAc(b1-3)Gal(b1-3)[Fuc(a1-4)]GlcNAc
Summary of the method: as §1

[3] = molecular target: Neu5Ac(a2-3)Gal(b1-3)[Fuc(a1-4)]GlcNAc(b1-3)Gal(b1-4)[Fuc(a1-3)]GlcNAc
Summary of the method: as §1

[4] = molecular target: Neu5Ac(a2-3)Gal(b1-3)[GlcNAc(b1-6)]GalNAc
Summary of the method: as §1

[5] = molecular target: Neu5Ac(a2-3)Gal(b1-3)[Neu5Ac(a2-6)]GalNAc
Summary of the method: as §1

[6] = molecular target: Neu5Ac(a2-3)Gal(b1-3)[Neu5Ac(a2-6)]GlcNAc(b1-3)[Fuc(a1-3)[Gal(b1-4)]GlcNAc(b1-6)]Gal(b1-4)Glc
Summary of the method: as §1

[7] = molecular target: Neu5Ac(a2-3)Gal(b1-3)]Neu5Ac(a2-3)Gal(b1-4)]GlcNAc
Summary of the method: as §1

Neu5Ac(a2-3)Gal(b1-4)Glc = molecular target: Neu5Ac(a2-3)Gal(b1-4)Glc
Summary of the method: as §1

[8] = molecular target: Neu5Ac(a2-3)Gal(b1-4)GlcNAc
Summary of the method: as §1

[9] = molecular target: Neu5Ac(a2-3)Gal(b1-4)GlcNAc(b1-2)Man
Summary of the method: as §1

[10] = molecular target: Neu5Ac(a2-3)Gal(b1-4)GlcNAc(b1-2)Man(a1-3)[GlcNAc(b1-4)][Neu5Ac(a2-3)Gal(b1-4)GlcNAc(b1-2)Man(a1-6)]Man(b1-4)GlcNAc(b1-4)GlcNAc
Summary of the method: as §1

[11] = molecular target: Neu5Ac(a2-3)Gal(b1-4)GlcNAc(b1-2)Man(a1-3)[Neu5Ac(a2-3)Gal(b1-4)GlcNAc(b1-2)Man(a1-6)]Man(b1-4)GlcNAc(b1-4)GlcNAc
Summary of the method: as §1

[12] = molecular target: Neu5Ac(a2-3)Gal(b1-4)GlcNAc(b1-2)Man(a1-3)[Neu5Ac(a2-3)Gal(b1-4)GlcNAc(b1-2)Man(a1-6)]Man(b1-4)GlcNAc(b1-4)[Fuc(a1-6)]GlcNAc
Summary of the method: as §1

[13] = molecular target: Neu5Ac(a2-3)Gal(b1-4)GlcNAc(b1-2)Man(a1-3)[Neu5Ac(a2-6)Gal(b1-4)GlcNAc(b1-2)Man(a1-6)]Man(b1-4)GlcNAc(b1-4)GlcNAc
Summary of the method: as §1

[14] = molecular target: Neu5Ac(a2-3)Gal(b1-4)GlcNAc(b1-2)[Neu5Ac(a2-3)Gal(b1-4)GlcNAc(b1-4)]Man(a1-3)[GlcNAc(b1-4)][Neu5Ac(a2-3)Gal(b1-4)GlcNAc(b1-2)[Neu5Ac(a2-3)Gal(b1-4)GlcNAc(b1-6)]Man(a1-6)]Man(b1-4)GlcNAc(b1-4)GlcNAc
Summary of the method: as §1

[15] = molecular target: Neu5Ac(a2-3)Gal(b1-4)GlcNAc(b1-2)[Neu5Ac(a2-3)Gal(b1-4)GlcNAc(b1-4)]Man(a1-3)[GlcNAc(b1-4)][Neu5Ac(a2-3)Gal(b1-4)GlcNAc(b1-4)Man(a1-6)]Man(b1-4)GlcNAc(b1-4)GlcNAc
Summary of the method: as §1

[16] = molecular target: Neu5Ac(a2-3)Gal(b1-4)GlcNAc(b1-2)[Neu5Ac(a2-3)Gal(b1-4)GlcNAc(b1-6)]Man(a1-6)[Neu5Ac(a2-3)Gal(b1-4)GlcNAc(b1-2)Man(a1-3)]Man(b1-4)GlcNAc(b1-4)GlcNAc
Summary of the method: as §1

[17] = molecular target: Neu5Ac(a2-3)Gal(b1-4)GlcNAc(b1-2)[Neu5Ac(a2-3)Gal(b1-4)GlcNAc(b1-6)]Man(a1-6)[Neu5Ac(a2-3)Gal(b1-4)GlcNAc(b1-2)Man(a1-3)][GlcNAc(b1-4)]Man(b1-4)GlcNAc(b1-4)GlcNAc
Summary of the method: as §1

[18] = molecular target: Neu5Ac(a2-3)Gal(b1-4)GlcNAc(b1-3)Gal
Summary of the method: as §1

[19] = molecular target: Neu5Ac(a2-3)Gal(b1-4)GlcNAc(b1-3)Gal(b1-3)GlcNAc
Summary of the method: as §1

[20] = molecular target: Neu5Ac(a2-3)Gal(b1-4)GlcNAc(b1-3)Gal(b1-4)GlcNAc
Summary of the method: as §1

[21] = molecular target: Neu5Ac(a2-3)Gal(b1-4)GlcNAc(b1-3)Gal(b1-4)GlcNAc(b1-2)Man(a1-3)[Neu5Ac(a2-3)Gal(b1-4)GlcNAc(b1-3)Gal(b1-4)GlcNAc(b1-2)Man(a1-6)]Man(b1-4)GlcNAc(b1-4)GlcNAc
Summary of the method: as §1

[22] = molecular target: Neu5Ac(a2-3)Gal(b1-4)GlcNAc(b1-3)Gal(b1-4)GlcNAc(b1-3)Gal(b1-4)GlcNAc
Summary of the method: as §1

[23] = molecular target: Neu5Ac(a2-3)Gal(b1-4)GlcNAc(b1-3)Gal(b1-4)GlcNAc(b1-3)Gal(b1-4)GlcNAc(b1-2)Man(a1-3)[Neu5Ac(a2-3)Gal(b1-4)GlcNAc(b1-3)Gal(b1-4)GlcNAc(b1-3)Gal(b1-4)GlcNAc(b1-2)Man(a1-6)]GalNAc
Summary of the method: as §1

[24] = molecular target: Neu5Ac(a2-3)Gal(b1-4)GlcNAc(b1-3)Gal(b1-4)GlcNAc(b1-3)GalNAc
Summary of the method: as §1

[25] = molecular target: Neu5Ac(a2-3)Gal(b1-4)GlcNAc(b1-3)Gal(b1-4)GlcNAc(b1-3)[Neu5Ac(a2-3)Gal(b1-4)GlcNAc(b1-3)Gal(b1-4)GlcNAc(b1-6)]GalNAc
Summary of the method: as §1

[26] = molecular target: Neu5Ac(a2-3)Gal(b1-4)GlcNAc(b1-3)Gal(b1-4)GlcNAc(b1-6)[Gal(b1-3)]GalNAc
Summary of the method: as §1

[27] = molecular target: Neu5Ac(a2-3)Gal(b1-4)GlcNAc(b1-3)Gal(b1-4)[Fuc(a1-3)]GlcNAc
Summary of the method: as §1

[28] = molecular target: Neu5Ac(a2-3)Gal(b1-4)GlcNAc(b1-3)GalNAc
Summary of the method: as §1

[29] = molecular target: Neu5Ac(a2-3)Gal(b1-4)GlcNAc(b1-3)[Neu5Ac(a2-3)Gal(b1-4)GlcNAc(b1-6)]GalNAc
Summary of the method: as §1

[30] = molecular target: Neu5Ac(a2-3)Gal(b1-4)GlcNAc(b1-6)GalNAc
Summary of the method: as §1

[31] = molecular target: Neu5Ac(a2-3)Gal(b1-4)GlcNAc(b1-6)[Gal(b1-3)]GalNAc
Summary of the method: as §1

[32] = molecular target: Neu5Ac(a2-3)Gal(b1-4)GlcNAc(b1-6)[Neu5Ac(a2-3)Gal(b1-3)]GalNAc
Summary of the method: as §1

[33] = molecular target: Neu5Ac(a2-3)Gal(b1-4)GlcNAc6S
Summary of the method: as §1

[34] = molecular target: Neu5Ac(a2-3)Gal(b1-4)[Fuc(a1-3)]GlcNAc
Summary of the method: as §1

[35] = molecular target: Neu5Ac(a2-3)Gal(b1-4)[Fuc(a1-3)]GlcNAc(b1-2)Man
Summary of the method: as §1

[36] = molecular target: Neu5Ac(a2-3)Gal(b1-4)[Fuc(a1-3)]GlcNAc(b1-3)Gal
Summary of the method: as §1

[37] = molecular target: Neu5Ac(a2-3)Gal(b1-4)[Fuc(a1-3)]GlcNAc(b1-3)Gal(b1-4)GlcNAc
Summary of the method: as §1

[38] = molecular target: Neu5Ac(a2-3)Gal(b1-4)[Fuc(a1-3)]GlcNAc(b1-3)Gal(b1-4)[Fuc(a1-3)]GlcNAc(b1-3)Gal(b1-4)[Fuc(a1-3)]GlcNAc
Summary of the method: as §1

[39] = molecular target: Neu5Ac(a2-3)Gal(b1-4)[Fuc(a1-3)]GlcNAc(b1-3)GalNAc
Summary of the method: as §1

[40] = molecular target: Neu5Ac(a2-3)Gal(b1-4)[Fuc(a1-3)]GlcNAc(b1-6)[Gal(b1-3)]GalNAc
Summary of the method: as §1

[41] = molecular target: Neu5Ac(a2-3)Gal(b1-4)[Fuc(a1-3)]GlcNAc(b1-6)[Neu5Ac(a2-3)Gal(b1-3)]GalNAc
Summary of the method: as §1

[42] = molecular target: Neu5Ac(a2-3)Gal(b1-4)[Fuc(a1-3)]GlcNAc6S
Summary of the method: as §1

[43] = molecular target: Neu5Ac(a2-3)Gal6S(b1-4)GlcNAc
Summary of the method: as §1

[44] = molecular target: Neu5Ac(a2-3)Gal6S(b1-4)[Fuc(a1-3)]GlcNAc
Summary of the method: as §1

B1: Clec18A (Homo sapiens) (protein)
chain: PFHTCDLRIDGDCFMVSSEADTYYRARMKCQRKGGVLAQIKRQKVQDILAFYLGRLETTNEVIDSDFETRNFWIGLTYKTAKDSFRWATGEHQAFTSFAFGQPDNHGFGNCVELQASAAFNWNDQRCKTRNRYICQ
glycan array binding signal (z-score) [1]: -0.727 | glycan array binding signal (z-score) [2]: -0.623 | glycan array binding signal (z-score) [3]: -0.484 | glycan array binding signal (z-score) [4]: -0.725 | glycan array binding signal (z-score) [5]: -0.803 | glycan array binding signal (z-score) [6]: 0.111 | glycan array binding signal (z-score) [7]: 0.45 | glycan array binding signal (z-score) (Neu5Ac(a2-3)Gal(b1-4)Glc): -0.688 | glycan array binding signal (z-score) [8]: -0.878 | glycan array binding signal (z-score) [9]: 0.243 | glycan array binding signal (z-score) [10]: -0.728 | glycan array binding signal (z-score) [11]: -0.481 | glycan array binding signal (z-score) [12]: -0.241 | glycan array binding signal (z-score) [13]: -0.398 | glycan array binding signal (z-score) [14]: -0.652 | glycan array binding signal (z-score) [15]: -0.566 | glycan array binding signal (z-score) [16]: 0 | glycan array binding signal (z-score) [17]: -0.848 | glycan array binding signal (z-score) [18]: -0.85 | glycan array binding signal (z-score) [19]: -0.866 | glycan array binding signal (z-score) [20]: -0.852 | glycan array binding signal (z-score) [21]: -0.022 | glycan array binding signal (z-score) [22]: -0.761 | glycan array binding signal (z-score) [23]: 0.057 | glycan array binding signal (z-score) [24]: -0.74 | glycan array binding signal (z-score) [25]: -0.569 | glycan array binding signal (z-score) [26]: 0.247 | glycan array binding signal (z-score) [27]: -0.342 | glycan array binding signal (z-score) [28]: -0.727 | glycan array binding signal (z-score) [29]: -0.68 | glycan array binding signal (z-score) [30]: 0.45 | glycan array binding signal (z-score) [31]: -0.468 | glycan array binding signal (z-score) [32]: -0.986 | glycan array binding signal (z-score) [33]: -0.515 | glycan array binding signal (z-score) [34]: -0.808 | glycan array binding signal (z-score) [35]: -0.726 | glycan array binding signal (z-score) [36]: -0.809 | glycan array binding signal (z-score) [37]: -0.075 | glycan array binding signal (z-score) [38]: -0.159 | glycan array binding signal (z-score) [39]: 0.176 | glycan array binding signal (z-score) [40]: 1.49 | glycan array binding signal (z-score) [41]: -0.44 | glycan array binding signal (z-score) [42]: -0.788 | glycan array binding signal (z-score) [43]: -0.482 | glycan array binding signal (z-score) [44]: -0.968
